Laboratory results as given in US20240409517A1, “ORGANIC COMPOUNDS” (GIVAUDAN SA, priority 2021, published 2024).
Some results were stated once for a whole list of compounds, not compound by compound.

What was measured:
[1] = system: sensory panel; assay: Salt enhancement in 0.5% NaCl aqueous solution, sensory panel; type: in vivo; conditions: 0.5% NaCl aq. solution with 50 ppm compound, compared with 0.5% NaCl alone
Description: The solutions were tasted by a sensory panel. Solution A was describes as “salty”.
Aqueous solutions comprising 0.5% NaCl and 50 ppm of the compounds of example 2-21, respectively, have been prepared and tasted by a sensory panel in comparison with an aqueous solution comprising 0.5% NaCl.
Aqueous solutions comprising 0.5% NaCl and 50 ppm of the compounds of example 38-58, respectively, have been prepared and tasted by a sensory panel in comparison with an aqueous solution comprising 0.5% NaCl.

[2] = system: sensory panel; assay: Taste in water by a sensory panel; type: in vivo; conditions: 50 ppm

With `O=C1NC(Cc2c[nH]cn2)C(=O)NC1Cc1c[nH]cn1` (centres unmarked) [Example 21, 3,6-bis[(1H-imidazol-4-yl)methyl]piperazine-2,5-dione] the “salty taste versus 0.5% NaCl solution” value [1] was “more salty” and the taste in water [2] was “no taste”.
